Data: paper PMC11316749
These are yes or no findings as the source states them, for the method shown. Binding seen in cells or lysates may run through a third protein. For part of these data: Binding calls can cover weak binding; strength is not graded here.

B1: DIS3 (enzyme, UniProt Q9VC93 1-982)
chain: MQTLREFTRKTKRGNILKIVREHYLRDDIGCGSELCRECFQNEVYQLTSQHANKSTLFKFPHYLVLDTNVVLDQIDVLEEDVLRNVVVLTTVLNEVKHRSSAIYKRFNEIVHDRTRNFYVFVNEHHKETYADREPDETANDRNDRAIRLATKWYDDHLQASQSSKEFERSGKAATRVVLLTDDAANRAKAEAEGILVTTAAEYVKSLEDFPLLMDKLSHKTFDSEKNGLPQYPPHLSMKELLEGLRQNKLLQGTFQASRENYLEGTVNVEKFEKGILIQGRESLNRAVDGDLVAVELLPEAEWSAPSEIVLEEKNVYADEVPSEERAKDENEMLNQVRAAALSAERTPTGRIVGIVRRKWRQYCGILQPSLIEDTNRHIFVPADRKIPRIRIETRQAAMLQNQRIIVTIDTWPRNSRYPHGHFVRSLGPLGDMATENEVILLEHDVPHCKFSDEVLSFLPKMPWTITDEDYSKRVDLRDLYICSVDPPGCTDIDDALHCKELPNGNLEVGVHIADVSHFIRPGNALDMEAAARGTTVYLVGKRIDMVPELLSSNLCSLVGGVERFAFSCVWEVDNEANVLSKRFHKSVIKSKRAMTYEEAQNIIDDATQQNEIAKSLRNLNRLAKILKKRRMDNGALVLASPEIRFQVDSETHEPLEVEVKQMRETNSMVEEFMLLANITVAEHIATEFSECAVLRRHPRPPPTNFDPLVKSARYQGFQVDINSGLELSHSLDKCVKADNPYFNTMIRILTTRCMMQAVYFISGSLQKEEFFHYGLAAPIYTHFTSPIRRYSDIMVHRLLAASIGADSTYAQLLDRKSNEELCHNLNYRHKMAQYAGRASVALNTHLFFRGKEEDEEGYVLFVRKNALQVLIPKYGLEGTLYLKSDKDGKDGVERVKSEIVFTFNEEDHTQRCGDVVFHSFDPVTVRLSLDSSNVQHEKLIFRLVKPYIKGFSVETTTEGTDSQAVSAAPPSKKTKKDKKKK
B2: non-ubiquitinated RPS7 (protein, UniProt Q9VA91 1-194)
chain: MAIGSKIIKPGGSDPDDFEKSIAQALVELEANSDLKPYLRDLHITRAREIEFGSKKAVIIYVPIPQQKVFQKIQIILVRELEKKFSGKHVVVIAERKILPKPTRKARNPLKQKRPRSRTLTAVYDAILEDLVFPAEIVGKRIRVKLDGSQLVKVHLDKNQQTTIEHKVDTFTSVYKKLTGRDVTFEFPDNYLNV

Key:
[1] = molecular target: OTUD6^C183A.FLAG.HA (Drosophila (endogenous locus, fly heads)); assay: co-IP; anti-FLAG IP of OTUD6^C183A.FLAG.HA from Drosophila lysate, western detection
[2] = molecular target: OTUD6^C183A.FLAG.HA (Drosophila (endogenous locus, fly heads)); assay: co-IP; anti-FLAG IP of tagged OTUD6 and OTUD6^C183A (untagged OTUD6^C183A as control) from Drosophila lysate in the presence of cycloheximide, western for RPS7, RPL11 and eIF2α
[3] = molecular target: OTUD6.FLAG.HA (Drosophila (endogenous locus)); assay: as above

Row | Binder | binding [1] | binding [2] | binding [3]
1 | B1 | binds | – | –
2 | B2 | – | no binding | no binding
